Laboratory results published in publication doi:10.1101/2024.12.03.626679, “Structure of the SMYD2-PARP1 Complex Reveals Both Productive and Allosteric Modes of Peptide Binding” (bioRxiv, 2024).
These are yes or no findings as the source states them, for the method shown.

The chains behind the UniProt entries cited, without tags or fusion partners. Where a name states a change or a piece, a line headed by the entry shows the natural chain unless it says otherwise.
UniProt Q9NRG4: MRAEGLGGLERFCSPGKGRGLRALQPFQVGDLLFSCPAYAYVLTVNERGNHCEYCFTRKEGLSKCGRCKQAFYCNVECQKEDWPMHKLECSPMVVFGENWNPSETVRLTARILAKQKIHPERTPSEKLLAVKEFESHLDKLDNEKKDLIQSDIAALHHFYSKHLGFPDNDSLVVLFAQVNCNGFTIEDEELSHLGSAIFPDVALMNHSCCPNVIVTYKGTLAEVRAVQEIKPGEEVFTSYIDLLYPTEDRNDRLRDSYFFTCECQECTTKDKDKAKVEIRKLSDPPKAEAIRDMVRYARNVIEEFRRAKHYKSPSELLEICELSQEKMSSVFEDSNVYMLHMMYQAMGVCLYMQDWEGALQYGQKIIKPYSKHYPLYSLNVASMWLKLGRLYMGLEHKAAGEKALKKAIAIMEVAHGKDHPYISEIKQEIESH

What was measured:
[1] = molecular target: SMYD2-L351A/W356A (human) (UniProt Q9NRG4); assay: crystal structure; co-crystallisation of SMYD2 proteins with AdoHcy and PARP1 peptide, hanging drop, 20°C; 20% PEG3350, 100 mM Tris pH 7.5, 5% ethanol, 1 mM PARP1 peptide, 600 μM AdoHcy; both purified
[2] = molecular target: SMYD2-L351A/W356A (human) (UniProt Q9NRG4); assay: condition: 631 μM PARP1 peptide in the syringe, 40 μM SMYD2 in the cell; ITC; NanoITC SV, 27°C, 25 mM Tris pH 7.5, 50 mM NaCl; 40 μM SMYD2 in the cell, 631 μM PARP1 peptide in the syringe, 16 injections of 15 μL; one-site, two-site and binding polynomial models; both purified

binding [1]: no binding (tested: 1 mM PARP1 peptide)
binding [2]: no binding
Binder: RMKLTLKGGAAVD [PARP1 peptide (13-residue synthetic peptide, human PARP1 residues 522-534)]
